Data reported in PubChem BioAssay AID504444 (National Center for Advancing Translational Sciences (NCATS), 2011).
In all, about 360,000 compounds went through this assay and about 7,500 (2.1%) were called active. Inconclusive means that the source gave no clear call. Such entries were picked first, then a sample of the others. Calls follow the shape of the dose curve; as a rule, active = well fitted inhibition curve with a large enough effect; inconclusive = small, poorly fitted or top-dose-only effect, or effect the other way; inactive = flat fitted curve, though single readings scatter. Where the call is inconclusive, the potency comes from a doubtful curve fit.

Assay: Nrf2 qHTS screen for inhibitors; also: nearly all actives have a fitted effect of over 60% in size
Settings: A549 ARE-Fluc reporter, luciferase luminescence, 18-24 h; series mostly up to 46 µM
Method in brief: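 A549 ARE_Fluc cells, 5000/well, 5% FBS OPTI-MEM; compounds in dose-response, 18-24 h at 37 °C/5% CO2; CellTiter-Fluor viability read (Ex 405/Em 525), then BugLite luciferase luminescence = Nrf2 activity.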
Potency is read from the fitted curve at half-maximal effect.

Row | SMILES | Potency
1 | O=c1[nH]c(CN2CCN(S(=O)(=O)c3ccccc3C(F)(F)F)CC2)nc2sc3c(c12)CCCC3 | inconclusive: 29.1 µM [falling, single point]
2 | O=S(=O)(c1cccc(Cl)c1Cl)N1CCN(C(=S)NCCCN2CCOCC2)CC1 | inconclusive: 23.1 µM [falling, single point]
3 | O=S(=O)(Nc1ccccc1)c1ccc(-c2cnc(C3CC3)o2)cc1 | inconclusive: 13 µM [falling, single point]
4 | CN(C)/C=N/C(=S)Nc1ccc(Cl)cc1Cl | inconclusive: 5.8 µM [activator, partial curve]
5 | COC(=O)CNc1nc(Cl)nc(N2CCC(C)CC2)n1 | inconclusive: 9.2 µM [activator, partial curve, poor fit]
6 | Cc1cc(C)cc(NC(=O)Nc2ccc3c(c2)N(C)C(=O)CS3)c1 | inconclusive: 18.4 µM [falling, single point]
7 | Cc1cc(CNC(=O)COc2ccccc2F)c2ccccc2n1 | inconclusive: 29.1 µM [falling, single point]
8 | CC1(NC(=O)c2cccc(S(=O)(=O)N3CCN(c4ccc(F)cc4)CC3)c2)CCS(=O)(=O)C1 (configuration not stated) | inconclusive: 25.9 µM [falling, partial curve, poor fit]
9 | O=S(=O)(c1ccc2c(c1)OCCO2)N1CCN(S(=O)(=O)c2ccc3nc(Cl)c(Cl)nc3c2)CC1 | inactive
10 | Cc1ccc(-c2nnc(-c3cccnc3)o2)cc1 | inconclusive: 18.4 µM [activator, single point]
11 | Cc1cc(C(=O)COC(=O)c2ccc(Cl)c(S(N)(=O)=O)c2)c(C)n1C1CC1 | inconclusive: 16.4 µM [activator, single point]
12 | CN1CCN(C(=O)c2cc(COc3ccc(F)cc3Cl)on2)CC1c1ccccc1 (configuration not stated) | active: 13 µM
13 | COc1cccc(OC)c1C(=O)NC(C)C12CC3CC(CC(C3)C1)C2 (configuration not stated) | inconclusive: 2.59 µM [falling, full curve, poor fit]
14 | CCCC(=O)N=C1SC2CS(=O)(=O)CC2N1c1ccc(-c2nc3ccc(C)cc3s2)cc1 (configuration not stated) | inconclusive: 2.91 µM [activator, full curve, poor fit]
15 | COc1cccc(NC(=O)CN(C)C(=O)CSc2ccc3c(c2)OCCO3)c1 | inactive
16 | Cc1nc(Nc2ccccc2C)c2cnn(C)c2n1 | inconclusive: 7.31 µM [falling, partial curve, poor fit]
17 | CCc1ccccc1NC(=O)Cn1c(=O)n(CC2CCC(C(=O)NCCc3ccccc3)CC2)c(=O)c2ccccc21 (configuration not stated) | inactive
18 | O=S(=O)(c1ccccc1F)N1CCC(Oc2ccc(-n3cnnn3)cc2)CC1 | inconclusive: 18.4 µM [falling, single point]
19 | COc1ccc(NC(=O)N(C)C[C@H]2Oc3c(NC(=O)Nc4ccc(C(F)(F)F)cc4)cccc3C(=O)N([C@H](C)CO)C[C@@H]2C)cc1 | inconclusive: 23.1 µM [falling, single point]
20 | COc1ccc(C2(CNC(=O)c3ccco3)CCOCC2)cc1 | inconclusive: 2.91 µM [falling, single point]
21 | CCS(=O)(=O)N1CCC(n2c(C)nc3cccnc32)CC1 | inconclusive: 10.3 µM [activator, partial curve, poor fit]

Row | SMILES | Potency
22 | COc1ccccc1OCCNc1cc(N2CCOCC2)ccc1[N+](=O)[O-] | inactive
23 | COCCN(CC(=O)Nc1cccc(C)c1C)C(=O)c1cc2ccccc2cc1OC | inconclusive: 18.4 µM [falling, single point]
24 | c1ccc(-c2csc(N3CCCCCC3)n2)cc1 | inconclusive: 23.1 µM [activator, partial curve]
25 | CCOc1ccc(-c2nc(N)ncc2Oc2ccccc2Br)c(O)c1 | inconclusive: 32.6 µM [falling, single point]
26 | COc1cc2oc(=O)c(CC(=O)N3CCCCC3)c(C)c2cc1OC | inactive
27 | CCCn1nnc(NC(=O)c2ccc(-c3cc(Cl)ccc3Cl)o2)n1 | inconclusive: 23.1 µM [falling, single point]
28 | O=C1C=C(c2ccc(Cl)cc2)OC2(CCCC2)O1 | inconclusive: 0.517 µM [activator, full curve, poor fit]
29 | Cc1cc(Cl)ccc1Oc1nccc(N(C)C)c1C#N | active: 23.1 µM
30 | COCCCNC(=O)c1cccs1 | inconclusive: 0.92 µM [activator, partial curve, poor fit]
31 | Cc1cccc(C(=O)N[C@H](C(=O)Nc2ccc(C)c(S(=O)(=O)N(C)C)c2)C(C)C)c1 | inconclusive: 29.1 µM [falling, single point]
32 | COc1ccc2[nH]c3c(c2c1)CC(C)NC3=O (configuration not stated) | inconclusive: 0.291 µM [falling, full curve, poor fit]
33 | CC(=O)Nc1ccc2c(c1)C(=O)c1ccc(Cl)cc1-2 | inconclusive: 14.6 µM [activator, partial curve, poor fit]
34 | Cc1cc2ccccn2c1C(=O)c1ccc(S(=O)(=O)N(C)C)cc1 | inconclusive: 23.1 µM [falling, partial curve]
35 | Cc1ccc(-c2nnc(N3CCOCC3)c3ccccc23)cc1S(=O)(=O)NCc1cccnc1 | inactive
36 | N#CC1=C2SCC(O)(c3ccccc3)N2C(=O)CC1c1ccccc1 (configuration not stated) | inconclusive: 1.46 µM [falling, full curve]
37 | C=CCOc1ccc2ccccc2c1CNCCCN1CCOCC1 | inactive
38 | Cc1ccc(S(=O)(=O)c2nc(-c3ccccc3Cl)oc2N2CCCCCC2)cc1 | inactive
39 | COc1ccc(C2=NN(C(=O)c3cccs3)C(c3ccccc3O)C2)cc1 (configuration not stated) | active: 23.1 µM
40 | CCn1c(=O)n(CC)c2cc(S(=O)(=O)N3CCC(c4ccccc4)CC3)ccc21 | inconclusive: 20.6 µM [falling, partial curve, poor fit]
41 | Cc1cc(C)c(NC(=O)CSc2nc(COc3ccccc3)nc3ccccc23)c(C)c1 | inconclusive: 20.6 µM [falling, single point]
42 | CCOC(=O)c1cc(-c2ccc3c(c2)OCCO3)n[nH]1 | inconclusive: 29.1 µM [activator, partial curve]

In a second layout: 2 of the compounds above
Row	SMILES	Potency
15	COc1cccc(NC(=O)CN(C)C(=O)CSc2ccc3c(c2)OCCO3)c1	inactive
29	Cc1cc(Cl)ccc1Oc1nccc(N(C)C)c1C#N	active: 23.1 µM
